PubChem BioAssay AID1347076 (National Center for Advancing Translational Sciences (NCATS), 2019)
In all, about 400,000 compounds went through this assay and about 13,000 (3.2%) were called active. The shares of active, inactive and inconclusive entries below differ from those in the screen. The call rests on the fitted dose curve; in most records, active means well fitted cell-killing curve with a large enough effect; inconclusive means small, poorly fitted or top-dose-only effect, or effect the other way; inactive means flat fitted curve, though single readings scatter. Potencies of inconclusive entries are doubtful fits and often do not repeat.

assay: qHTS assay for MDR1-selective chemotherapeutics: Primary screen using the drug-selected MDR subline cells KB-V1; details: KB-V1 MDR cells viability, CellTiter-Glo, 72 h; activity change, negative = cytotoxicity: at 46.1 µM (top of the series); further: nearly all actives have a fitted effect of over 60% in size
Outline: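 KB-V1, DMEM (no phenol red) + 10% FBS; cpd pin-transferred, titration series; 72 h, 37 degrees C; CellTiter-Glo, luminescence. Data normalized, curve-fit.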
On the % scale 0 is the no-effect control and ±100 the full control effect; potency means the concentration at half of the fitted maximal effect.

SMILES	Potency	activity change, negative = cytotoxicity
CC(C)OCCCNC(=O)C1CC(=O)N(CCc2ccc(F)cc2)C1 (configuration not stated)	inconclusive: 29.1 µM [rising, partial curve, poor fit]	
COc1cc2c(NC3CCN(C)CC3)nc(N3CCCN(C)CC3)nc2cc1OCCCCCN		inactive: -12.6%
COC(=O)c1ccc(Oc2ccc3nnc(C)n3n2)cc1		inactive: 4.72%
Cc1ccc(C2(C)NC(=O)N(CC(=O)N3CCN(S(=O)(=O)c4cccc([N+](=O)[O-])c4)CC3)C2=O)cc1 (configuration not stated)	inconclusive: 29.1 µM [rising, single point]	
CCOc1ccc(CCNC(=O)CS(=O)(=O)Cc2nc(-c3ccc(OC)cc3)oc2C)cc1	inactive	
CC(=O)N1CCc2cc(S(=O)(=O)CCC(=O)Nc3ccc(C)cc3Br)ccc21		inactive: -27.4%
COc1ccc(C2OCC(C)(C)CO2)cc1OC	inconclusive: 32.6 µM [rising, single point]	
O=C(CCS(=O)(=O)c1ccc(Cl)cc1)NCCN1C(=O)S/C(=C\c2ccccc2F)C1=O	active: 13 µM	
Cc1ccc(C)c(NS(=O)(=O)c2ccc(OCC(=O)N3CCCC3)cc2)c1	active: 20.6 µM	
CCS(=O)(=O)c1nc(S(=O)(=O)c2ccc(Cl)cc2)c(N2CCC3(CC2)OCCO3)s1	inconclusive: 0.58 µM [cytotoxic, full curve]	
O=C(CSc1nnc(-c2ccco2)n1-c1ccccc1)N1CCN(C(=O)c2ccco2)CC1		inactive: -3.63%
Cc1cc(OC(C)C(=O)Nc2cccc(-c3nc4ccccc4o3)c2)cc(C)c1Cl (configuration not stated)	inconclusive: 2.59 µM [cytotoxic, partial curve, poor fit]	
Cc1ccccc1OCc1nc2ccccc2c(=O)n1/N=C/c1cn[nH]c1-c1ccccc1	active: 13 µM	
O=C1NC(CCc2ccccc2)C(=O)N1Cc1ccccc1Cl (configuration not stated)	active: 16.4 µM	
CN(c1ccccc1)S(=O)(=O)c1cccc(NC(=O)c2cccc(C#N)c2)c1		inactive: -4.94%
CCOc1ccc(CCNC(=O)CN2C(=O)COc3ccc(S(=O)(=O)N4CCCC4)cc32)cc1		inactive: -12.2%
CCN(CCS(=O)(=O)c1ccc(Cl)cc1)Cc1nc2ccccc2c(=O)[nH]1	active: 7.31 µM	
O/N=C/c1ccc(OCc2ccccc2F)c(Cl)c1	active: 16.4 µM	
COc1ccc(N=C2SC(CC(=O)Nc3ccccc3)C(=O)N2Cc2ccccn2)cc1 (configuration not stated)	inconclusive: 23.1 µM [rising, single point]	
CCN(CC(=O)Nc1ccc(OC)cc1)C(=O)c1ccc([N+](=O)[O-])cc1	inconclusive: 8.2 µM [cytotoxic, partial curve]	
CCN1CCCC1CNC(=O)c1cc2c(C)nc3ccccc3c2o1 (configuration not stated)	inconclusive: 11.6 µM [cytotoxic, partial curve, poor fit]	
Cc1ccc(OCC(=O)N2CCN(c3ccc([N+](=O)[O-])c(N4CCOCC4)c3)CC2)cc1		inconclusive: -37.8% [cytotoxic]
COc1c(Cl)ccc(Cl)c1C(=O)NC(=O)Nc1nc(C)cc(C)n1	inconclusive: 16.4 µM [cytotoxic, single point]	
Cc1cccc(NC(=O)CSc2nc(-c3ccccc3)cc(=O)[nH]2)c1C	inconclusive: 6.51 µM [rising, full curve]	

SMILES	Potency	activity change, negative = cytotoxicity
CCOc1ccc(NC(=O)C2CCN(S(=O)(=O)c3cccs3)CC2)cc1	inconclusive: 7.31 µM [cytotoxic, partial curve]	
c1cnc2c(-c3ccc4nccn4c3)cccc2c1		inactive: -1.41%
CCN(c1cccc(C)c1)S(=O)(=O)c1cc(CN2C(=O)c3cccnc3C2=O)ccc1OC		inconclusive: 32.2%
Cc1ccc2[nH]c(=O)c(CN(Cc3ccc4c(c3)OCO4)Cc3nnnn3C3CCCC3)cc2c1	active: 18.4 µM	
CCOC(=O)Cc1csc(NC(=O)c2ccc(S(=O)(=O)N3CCOCC3)cc2)n1	inconclusive: 29.1 µM [cytotoxic, single point]	
Cc1cccc(-c2nc(C)c(CCNC(=O)C(=O)Nc3ccccc3C#N)s2)c1	inconclusive: 8.2 µM [cytotoxic, partial curve, poor fit]	
O=S(=O)(NCc1c(Cl)cccc1Oc1ccccc1)c1ccc(F)cc1		inactive: -29.2%
Cc1[nH]nc2c1C(C1CC=CCC1)C(C#N)=C(N)O2 (configuration not stated)		inactive: -22.4%
CC1(C)CCC(=O)N(c2ccccc2)C1=O	inconclusive: 23.1 µM [rising, single point]	
COc1ccc(/C=C2/Sc3ccc(C(=O)N4CCc5ccccc5C4)cc3NC2=O)cc1	inconclusive: 20.6 µM [rising, partial curve, poor fit]	
CCn1c(C(=O)N2CCC(C(=O)NCCc3ccc(C)cc3)CC2)cc2sccc21		inactive: 2.87%
CN(C)c1ccc(-c2ccnc3c2CC(C)(C(=O)NCc2ccc(F)c(F)c2)O3)cc1 (configuration not stated)		inactive: -10.3%
Cn1c(COc2ccccc2)nnc1SCCSc1nnc(COc2ccccc2)n1C	inconclusive: 20.6 µM [cytotoxic, single point]	
CCOc1ccc(CCNC(=O)C2CCN(S(=O)(=O)c3ccc(C)cc3)CC2)cc1OCC		inactive: -28.8%
CC1CCN(CCOCCOc2ccccc2-c2ccccc2)CC1	active: 11.6 µM	
CCCc1cc(-n2ccnc2C)n2c(nc3ccccc32)c1C#N		inactive: 6.4%
COCCCNC(=O)c1ccc(-c2nc(CS(=O)(=O)c3ccc(C)cc3)c(C)o2)cc1		inconclusive: -19.9%
CC(=O)Nc1cccc(OCc2cccc([N+](=O)[O-])c2)c1	active: 13 µM	
CCOC(=O)c1ccc(N2C(=O)c3n[nH]c(-c4ccco4)c3C2c2cccc(OC)c2)cc1 (configuration not stated)	inconclusive: 29.1 µM [cytotoxic, single point]	
NC(=O)CC(NC(=O)c1ccc(Br)cc1)c1ccc(NCc2ccc(F)cc2)c([N+](=O)[O-])c1 (configuration not stated)		inactive: 0%
Cc1cn(C(=O)c2ccccc2)c(=S)n1-c1ccc(Br)cc1	active: 14.6 µM	
C#CCNC(=O)C[C@@H]1C[C@@]2(C(=O)OCC)CCC=C2N(Cc2cccc3ccccc23)C1=O	inconclusive: 4.11 µM [cytotoxic, full curve]	
COc1ccc(NC(=O)Cc2cccc(F)c2)cc1S(=O)(=O)Nc1ccccc1Cl	inconclusive: 29.1 µM [cytotoxic, single point]	

Arranged by count of non-hydrogen atoms (descending): some entries from above
SMILES	Potency	activity change, negative = cytotoxicity
NC(=O)CC(NC(=O)c1ccc(Br)cc1)c1ccc(NCc2ccc(F)cc2)c([N+](=O)[O-])c1 (configuration not stated)		inactive: 0%
COc1ccc(NC(=O)Cc2cccc(F)c2)cc1S(=O)(=O)Nc1ccccc1Cl	inconclusive: 29.1 µM [cytotoxic, single point]	
CCOc1ccc(NC(=O)C2CCN(S(=O)(=O)c3cccs3)CC2)cc1	inconclusive: 7.31 µM [cytotoxic, partial curve]	
